Reference: the supplement of paper PMC8728848
The other results are listed elsewhere or left out.

What was measured:
Experiment in all cases: glycan array binding signal (z-score within array); higher = stronger binding
Conditions in all cases: glycan notation: IUPAC condensed, linker removed
[1] = test system: GlcNAc(b1-3)Gal(b1-4)GlcNAc(b1-3)Gal(b1-4)GlcNAc(b1-2)[GlcNAc(b1-3)Gal(b1-4)GlcNAc(b1-3)Gal(b1-4)GlcNAc(b1-6)]Man(a1-6)[GlcNAc(b1-3)Gal(b1-4)GlcNAc(b1-3)Gal(b1-4)GlcNAc(b1-2)Man(a1-3)]Man(b1-4)GlcNAc(b1-4)[Fuc(a1-6)]GlcNAc
How it was run: (§1)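 From the Consortium for Functional Glycomics database, 3228 arrays were curated, keeping only those whose protein sequence was available. Binding is given as a within-array Z-score averaged across arrays sharing a protein sequence and across linkers. Negative Z-scores can be read as non-binding.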

[2] = test system: GlcNAc(b1-3)Gal(b1-4)GlcNAc(b1-3)Gal(b1-4)GlcNAc(b1-3)Gal(b1-4)GlcNAc(b1-2)Man(a1-3)[GlcNAc(b1-3)Gal(b1-4)GlcNAc(b1-3)Gal(b1-4)GlcNAc(b1-3)Gal(b1-4)GlcNAc(b1-2)Man(a1-6)]Man(b1-4)GlcNAc(b1-4)GlcNAc
How it was run: as §1

[3] = test system: GlcNAc(b1-3)Gal(b1-4)GlcNAc(b1-3)Gal(b1-4)GlcNAc(b1-3)Gal(b1-4)GlcNAc(b1-2)Man(a1-3)[GlcNAc(b1-3)Gal(b1-4)GlcNAc(b1-3)Gal(b1-4)GlcNAc(b1-3)Gal(b1-4)GlcNAc(b1-2)Man(a1-6)]Man(b1-4)GlcNAc(b1-4)[Fuc(a1-6)]GlcNAc
How it was run: as §1

[4] = test system: GlcNAc(b1-3)Gal(b1-4)GlcNAc(b1-3)Gal(b1-4)GlcNAc(b1-3)Gal(b1-4)GlcNAc(b1-2)[GlcNAc(b1-3)Gal(b1-4)GlcNAc(b1-3)Gal(b1-4)GlcNAc(b1-3)Gal(b1-4)GlcNAc(b1-6)]Man(a1-6)[GlcNAc(b1-3)Gal(b1-4)GlcNAc(b1-3)Gal(b1-4)GlcNAc(b1-3)Gal(b1-4)GlcNAc(b1-2)Man(a1-3)]Man(b1-4)GlcNAc(b1-4)[Fuc(a1-6)]GlcNAc
How it was run: as §1

[5] = test system: GlcNAc(b1-3)Gal(b1-4)GlcNAc(b1-3)Gal(b1-4)GlcNAc(b1-3)Gal(b1-4)GlcNAc(b1-3)Gal(b1-4)GlcNAc(b1-2)Man(a1-3)[GlcNAc(b1-3)Gal(b1-4)GlcNAc(b1-3)Gal(b1-4)GlcNAc(b1-3)Gal(b1-4)GlcNAc(b1-3)Gal(b1-4)GlcNAc(b1-2)Man(a1-6)]Man(b1-4)GlcNAc(b1-4)GlcNAc
How it was run: as §1

[6] = test system: GlcNAc(b1-3)Gal(b1-4)GlcNAc(b1-3)Gal(b1-4)GlcNAc(b1-3)Gal(b1-4)GlcNAc(b1-3)Gal(b1-4)GlcNAc(b1-2)Man(a1-3)[GlcNAc(b1-3)Gal(b1-4)GlcNAc(b1-3)Gal(b1-4)GlcNAc(b1-3)Gal(b1-4)GlcNAc(b1-3)Gal(b1-4)GlcNAc(b1-2)Man(a1-6)]Man(b1-4)GlcNAc(b1-4)[Fuc(a1-6)]GlcNAc
How it was run: as §1

[7] = test system: GlcNAc(b1-3)Gal(b1-4)GlcNAc(b1-3)Gal(b1-4)GlcNAc(b1-3)Gal(b1-4)GlcNAc(b1-3)Gal(b1-4)GlcNAc(b1-2)[GlcNAc(b1-3)Gal(b1-4)GlcNAc(b1-3)Gal(b1-4)GlcNAc(b1-3)Gal(b1-4)GlcNAc(b1-3)Gal(b1-4)GlcNAc(b1-6)]Man(a1-6)[GlcNAc(b1-3)Gal(b1-4)GlcNAc(b1-3)Gal(b1-4)GlcNAc(b1-3)Gal(b1-4)GlcNAc(b1-3)Gal(b1-4)GlcNAc(b1-2)Man(a1-3)]Man(b1-4)GlcNAc(b1-4)[Fuc(a1-6)]GlcNAc
How it was run: as §1

[8] = test system: GlcNAc(b1-3)Gal(b1-4)GlcNAc(b1-3)Gal(b1-4)GlcNAc(b1-3)GalNAc
How it was run: as §1

[9] = test system: GlcNAc(b1-3)Gal(b1-4)GlcNAc(b1-3)Gal(b1-4)GlcNAc
How it was run: as §1

[10] = test system: GlcNAc(b1-3)Gal(b1-4)GlcNAc(b1-3)GalNAc
How it was run: as §1

[11] = test system: GlcNAc(b1-3)Gal(b1-4)GlcNAc(b1-3)[GlcNAc(b1-3)Gal(b1-4)GlcNAc(b1-3)]GalNAc
How it was run: as §1

[12] = test system: GlcNAc(b1-3)Gal(b1-4)GlcNAc(b1-6)[Gal(b1-3)]GalNAc
How it was run: as §1

[13] = test system: GlcNAc(b1-3)Gal(b1-4)GlcNAc(b1-6)[GlcNAc(b1-3)Gal(b1-3)]GalNAc
How it was run: as §1

[14] = test system: GlcNAc(b1-3)Gal(b1-4)GlcNAc(b1-6)[GlcNAc(b1-3)]Gal(b1-4)GlcNAc
How it was run: as §1

[15] = test system: GlcNAc(b1-3)Gal(b1-4)GlcNAc
How it was run: as §1

GlcNAc(b1-3)Gal(b1-4)Glc = test system: GlcNAc(b1-3)Gal(b1-4)Glc
How it was run: as §1

GlcNAc(b1-3)GalNAc = test system: GlcNAc(b1-3)GalNAc
How it was run: as §1

GlcNAc(b1-3)Gal = test system: GlcNAc(b1-3)Gal
How it was run: as §1

GlcNAc(b1-3)Man = test system: GlcNAc(b1-3)Man
How it was run: as §1

[16] = test system: GlcNAc(b1-3)[GlcNAc(b1-4)][GlcNAc(b1-6)]GlcNAc
How it was run: as §1

[17] = test system: GlcNAc(b1-3)[GlcNAc(b1-6)]Gal(b1-4)GlcNAc
How it was run: as §1

[18] = test system: GlcNAc(b1-3)[GlcNAc(b1-6)]GalNAc
How it was run: as §1

[19] = test system: GlcNAc(b1-4)Gal(b1-4)GlcNAc
How it was run: as §1

[20] = test system: GlcNAc(b1-4)GlcNAc(b1-4)GlcNAc(b1-4)GlcNAc(b1-4)GlcNAc(b1-4)GlcNAc
How it was run: as §1

[21] = test system: GlcNAc(b1-4)GlcNAc(b1-4)GlcNAc(b1-4)GlcNAc(b1-4)GlcNAc
How it was run: as §1

[22] = test system: GlcNAc(b1-4)GlcNAc(b1-4)GlcNAc
How it was run: as §1

GlcNAc(b1-4)GlcNAc = test system: GlcNAc(b1-4)GlcNAc
How it was run: as §1

[23] = test system: GlcNAc(b1-4)[GlcNAc(b1-6)]GalNAc
How it was run: as §1

[24] = test system: GlcNAc(b1-6)Gal(b1-4)GlcNAc
How it was run: as §1

GlcNAc(b1-6)GalNAc = test system: GlcNAc(b1-6)GalNAc
How it was run: as §1

[25] = test system: GlcNAc6S(b1-3)Gal(b1-4)GlcNAc
How it was run: as §1

Kdn(a2-3)Gal(b1-3)GalNAc = test system: Kdn(a2-3)Gal(b1-3)GalNAc
How it was run: as §1

Substance: MpAFP RI GFP (Marinomonas primoryensis)
- glycan array binding signal (z-score) [1]: 1.29
- glycan array binding signal (z-score) [2]: 4.26
- glycan array binding signal (z-score) [3]: 1.84
- glycan array binding signal (z-score) [4]: 1.39
- glycan array binding signal (z-score) [5]: 0.132
- glycan array binding signal (z-score) [6]: 0.427
- glycan array binding signal (z-score) [7]: 0.136
- glycan array binding signal (z-score) [8]: -0.564
- glycan array binding signal (z-score) [9]: -0.728
- glycan array binding signal (z-score) [10]: -0.309
- glycan array binding signal (z-score) [11]: -0.155
- glycan array binding signal (z-score) [12]: -0.32
- glycan array binding signal (z-score) [13]: 0.044
- glycan array binding signal (z-score) [14]: -0.702
- glycan array binding signal (z-score) [15]: -0.815
- glycan array binding signal (z-score) (GlcNAc(b1-3)Gal(b1-4)Glc): -0.605
- glycan array binding signal (z-score) (GlcNAc(b1-3)GalNAc): -0.403
- glycan array binding signal (z-score) (GlcNAc(b1-3)Gal): -0.51
- glycan array binding signal (z-score) (GlcNAc(b1-3)Man): 0.335
- glycan array binding signal (z-score) [16]: -0.643
- glycan array binding signal (z-score) [17]: -0.582
- glycan array binding signal (z-score) [18]: -0.199
- glycan array binding signal (z-score) [19]: 0.896
- glycan array binding signal (z-score) [20]: -0.527
- glycan array binding signal (z-score) [21]: 1.56
- glycan array binding signal (z-score) [22]: -0.623
- glycan array binding signal (z-score) (GlcNAc(b1-4)GlcNAc): 2
- glycan array binding signal (z-score) [23]: -0.334
- glycan array binding signal (z-score) [24]: 0.096
- glycan array binding signal (z-score) (GlcNAc(b1-6)GalNAc): -0.628
- glycan array binding signal (z-score) [25]: 0.068
- glycan array binding signal (z-score) (Kdn(a2-3)Gal(b1-3)GalNAc): 0.271
